Primary screen of a compound library

The chains behind the UniProt entries cited, without tags or fusion partners.
UniProt P9WNZ1, whole entry: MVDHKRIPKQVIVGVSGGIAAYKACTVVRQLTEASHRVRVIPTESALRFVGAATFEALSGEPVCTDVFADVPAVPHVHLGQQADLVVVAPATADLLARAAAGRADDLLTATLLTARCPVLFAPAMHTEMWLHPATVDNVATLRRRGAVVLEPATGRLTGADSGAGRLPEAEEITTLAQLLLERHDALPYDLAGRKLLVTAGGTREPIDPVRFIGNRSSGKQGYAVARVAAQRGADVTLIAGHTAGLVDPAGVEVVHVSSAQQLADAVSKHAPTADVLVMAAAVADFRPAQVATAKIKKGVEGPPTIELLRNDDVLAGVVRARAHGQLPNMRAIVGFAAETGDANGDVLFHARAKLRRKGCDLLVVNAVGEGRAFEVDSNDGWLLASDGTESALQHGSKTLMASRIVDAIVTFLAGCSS
UniProt P9WFT3, whole entry: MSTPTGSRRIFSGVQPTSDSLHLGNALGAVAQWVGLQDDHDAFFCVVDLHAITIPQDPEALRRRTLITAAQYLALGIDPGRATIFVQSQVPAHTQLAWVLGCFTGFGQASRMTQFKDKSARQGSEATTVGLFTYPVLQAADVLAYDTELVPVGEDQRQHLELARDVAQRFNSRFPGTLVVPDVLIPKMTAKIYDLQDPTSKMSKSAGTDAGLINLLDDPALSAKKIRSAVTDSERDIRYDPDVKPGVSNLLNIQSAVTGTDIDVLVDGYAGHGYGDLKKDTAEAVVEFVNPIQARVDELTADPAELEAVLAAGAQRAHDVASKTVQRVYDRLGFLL

From ChEMBL document CHEMBL3988442, “University of Dundee, Small-Polar-MMV Screening Library” (2021).

Results are given as percent effect. The controls that fix the scale are not given in the record; negative values are as filed. This is an unselected part of the compounds tested. Two or more numbers in one place are separate tests of the same structure; such repeats can differ widely. A dash means the value is not listed here; it may have been measured.

CoaBC: 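Coenzyme A biosynthesis protein CoaBC, Mycobacterium tuberculosis (UniProt P9WNZ1). Enzyme assay of CoaBC with a phosphate dye (Biomol Green) read at 650 nm. Compounds at 30 µM. Direction is inferred from only a few compounds that gave an IC50; most scored high, so higher reads as stronger inhibition. Most strong results did not repeat in a second test. Size under these conditions: about 67,000 compounds, about 40 of them at 50% or above in at least one test.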
MtTrpRS: 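Enzyme assay of tryptophanyl-tRNA synthetase; the read-out is not stated. Target: Tryptophan-tRNA ligase, Mycobacterium tuberculosis (UniProt P9WFT3). Compounds at 10 µM. Direction is not recorded; retested compounds ran higher, which suggests that high means inhibition. Size under these conditions: about 65,000 compounds, about 64 of them at 50% or above in at least one test.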

structure	CoaBC	MtTrpRS
CN(Cc1ccncc1)C1COC2(CCN(Cc3ccccn3)CC2)C1 (stereo unspecified)	-8.403	1.918
Cc1sc2c(C3CCCN(S(C)(=O)=O)C3)nc(C)n2c1C (stereo unspecified)	4.136	-0.05798
CN1CCCC(c2cccc(-c3cccc(C(F)(F)F)c3)n2)C1 (stereo unspecified)	-4.785	-8.538
NC1C=C(C(F)(F)F)NC=C1c1ccc(Cl)cc1 (stereo unspecified)	-3.067	-
N#Cc1cccc(N2CC3(CCN(C(=O)NC4CC4)C3)CC2=O)c1 (stereo unspecified)	0.4202	-2.092
Cc1nc(-c2ccccc2)nc2c1CCN(Cc1nccn1C)CC2	2.351	-
CC(C)c1nnc(CN2CCCC2C(=O)OCc2ccccc2)o1 (stereo unspecified)	1.595	-2.427
O=C(Nc1cnccn1)[C@H]1CO[C@H]2CCN(c3ncc(F)cn3)C[C@H]2C1	2.836	0.08865
Cc1nc(C)n(CC2CCCN(c3ncnc4[nH]ccc34)C2)n1 (stereo unspecified)	6.005	-3.801
Cc1nc[nH]c1CN1C[C@@H]2CC[C@H](C1)N(C(=O)CCc1cccnc1)C2	1.786	4.838
O=c1[nH]ccn1CCCN1CC=C(c2cnn(-c3ccccc3)c2)CC1	-0.2571	-7.68
Cc1cnn(C2CCCN(C(=O)CN(C)c3cnccn3)C2)c1 (stereo unspecified)	-0.1212	-1.077
Cc1cc(NC2CCc3ncnn3C2)n2ncnc2n1 (stereo unspecified)	0.6402	2.571
Cn1c(=O)n(C)c2nc(Cl)c(CC(=O)c3ccccc3)n2c1=O	2.892	0.5825
Cc1oncc1C(=O)N1CC[C@H]2[C@@H]1CCC(=O)N2CC1CCOCC1	1.463	-
Cc1cc(C)n(-c2nc(C(=O)NCCN3CCC(C)CC3)cs2)n1	9.466	-4.863
CC(NC(=O)NCCCN1CCCC1)c1nncn1C (stereo unspecified)	4.337	-5.49
O=C1C[C@H]2CC[C@@H](CN1)N2C(=O)CCc1ccsc1	8.148	3.446
CCN1CCc2c(cccc2NC(=O)CN(C)C2CCSC2)C1 (stereo unspecified)	-3.788	0.6302
NC(=O)C(Nc1cccc(CO)c1)c1ccc(Br)cc1 (stereo unspecified)	0.9569	0.09709
Cc1ccc(C)c(CC(=O)NC2CCC(N3C(=O)CCC3=O)CC2)c1 (stereo unspecified)	0.86	0.2463
FC(F)(F)c1cccnc1N1CCC(OC2CCOCC2)CC1	20.78 & 15.87	-0.149
O=C1NC2(CCN(CCO)CC2)CC1c1ccccc1 (stereo unspecified)	-25.16	-5.426
Cc1nn(C)c(Cl)c1C1CCCN1C(=O)c1csnn1 (stereo unspecified)	5.59	-1.846
CN(C)C(=O)CCC1CCCN(Cc2ccc(-c3cccnc3)cc2)C1 (stereo unspecified)	6.198	-2.224
CSCC(CCO)NC(=O)c1cccc(Cl)c1F (stereo unspecified)	2.658	-0.1356
CCS(=O)(=O)Nc1cnn(Cc2cccc(F)c2)c1	-2.892	1.877
CNc1cc(C2CCCN2Cc2ccccc2OCC(=O)O)ccn1 (stereo unspecified)	-2.222	2.592
O=C(NCC1CC1)C1CCC2(CCN(C(=O)c3cnccn3)CC2)O1 (stereo unspecified)	4	2.488
Cc1[nH]ncc1C(=O)N1CCN(CC(O)C(C)(C)C)CC1 (stereo unspecified)	-0.2591	-1.411
Cc1nc(CN2CCCC(N(C)Cc3nc(C)c(C)o3)C2)no1 (stereo unspecified)	6.263	0.08136
CCCNCC1(O)CCCN(Cc2cccc(C)c2)C1=O (stereo unspecified)	-10.45	0.2138
Cc1nccn1CCC(=O)N1CCCN(CCCc2ccccc2)CC1	2.475	-2.144
COCCN1CCN(c2cc(OC)ncn2)Cc2ccc(C)nc21	10.77	-
COc1ccc(C(O)CNC(=O)NCc2c(C)cc(C)[nH]c2=O)cc1 (stereo unspecified)	-0.9126	-5.48
COc1cc2c(cc1CNC(=O)Cc1cc(C)on1)OC(C)C2 (stereo unspecified)	5.447	0.1899
CC(C)N1CCN(C(=O)Nc2cnc3c(cnn3C(C)C)c2)CC1	-1.276	-3.129
CCNc1cc2c(nn1)CCN(C(=O)c1cc3c(s1)CCOC3)C2	2.122	10.16
Cc1nc[nH]c1CN1CCCC(CNC(=O)c2ccc(N)nc2)C1 (stereo unspecified)	-3.212	1.783
Cc1cc(C)nc(N(C)CCN(C)C2CCCC2)n1	6.263	-2.687
c1cnc(Nc2cc(CCC3CCCNC3)ccn2)cn1 (stereo unspecified)	3.155	-5.849
O=c1ccc2c(n1CC1CC1)CCC(NCc1cccs1)C2 (stereo unspecified)	2.104	-
CCc1nc(C2CCCN2C(=O)CCNS(C)(=O)=O)no1 (stereo unspecified)	9.781	-5.151
Cc1cccc(N2CC(c3nnc(N)s3)CC2=O)c1 (stereo unspecified)	5.612	2.546
CC(C)C(C(N)=O)c1cccc(Cl)c1 (stereo unspecified)	-2.334	-0.08211
c1coc(CNc2ncc3c(n2)C2(CCNC2)COC3)c1 (stereo unspecified)	-39.58	-2.327
Cc1ncc(C(=O)NCCNC(=O)Cc2cccc(F)c2)s1	1.786	-8.087
CCC(C)(C)N(C)CCOc1cccc(S(C)(=O)=O)c1	3.03	2.968
Cc1cc(N2CCC(N(C)C(=O)c3ccccc3)CC2)nc(C)n1	11.3	6.201
Cc1cc(C)n(C2CCCN(C(=O)c3cccc4c3OCO4)C2)n1 (stereo unspecified)	-5.839	0.9939
O=C(CCn1c(=O)oc2ccccc21)NCC(O)c1ccc(Cl)cc1 (stereo unspecified)	-0.7229	2.524
CC(C)(C)OC(=O)N1CCC(C(=O)NC2CCS(=O)(=O)C2)CC1 (stereo unspecified)	7.278	-3.193
CNC(=O)Cn1ccc2ccc(NC(=O)C(C)C)cc21	-0.2301	-4.575
CN1CC(=O)N(c2cccc(F)c2)CC12CCN(CCO)C2 (stereo unspecified)	3.299	-8.807
COCC1CN(Cc2ccsc2)Cc2nn(C)cc21 (stereo unspecified)	-0.6435	10.26
COCC(=O)N1CC[C@]2(O)CCN(Cc3cccnc3OC)C[C@@H]2C1	10.15	0.6717
Cc1csc(NC(=O)[C@@H]2C[C@H]3[C@H](CCN3S(C)(=O)=O)O2)n1	-0.6061	-
O=C(NCCOc1ccc2c(c1)OCO2)N1CCCC(CO)C1 (stereo unspecified)	3.584	-4.786
O=C(NCc1nnc2n1CCCCC2)N(Cc1ccncc1)C1CC1	4.808	-2.381
CC(=O)N1CCC(C)(c2cc(C(=O)NCC3CC3)nc(C)n2)CC1	7.416	-3.646